Reference: patent publication US7745587
These are yes or no findings as the source states them, for the method shown. Binding calls can cover weak binding; strength is not graded here.

B1: M0038-D06 Fab (Fab, V domains shown)
VH: EVQLLESGGGLVQPGGSLRLSCAASGFTFSWYYMGWVRQAPGKGLEWVSYIGSSGGMTGYADSVKGRFTISRDNSKNTLYLQMNSLRAEDTATYYCAMVGFLPTVDYWGQGTLVTVSS
VL: DIQMTQSPATLSLSPGERATLSCRASQSVSSYLAWYQQKPGQAPRLLIYDASNRATGIPARFSGSGSGTDFTLTISSLEPEDFAVYYCQQRSNWPLTFGQGTRLEIK
B2: M0038-E05 Fab (Fab, V domains shown)
VH: EVQLLESGGGLVQPGGSLRLSCAASGFTFSPYHMTWVRQAPGKGLEWVSSISSSGGHTEYADSVKGRFTISRDNSKNTLYLQMNSLRAEDTAVYYCATAWAGFTFNVWGQGTMVTVSS
VL: DIQMTQSPSSVSASVGDRVTITCRASQHISNWLAWYQQKPGEAPKLLISAASSLQSGVPSRFSGSGSGTDFTLTISSLQPEDFATYYCQQSYSTPLTFGGGTKVEIK
B3: M0039-D10 Fab (Fab, V domains shown)
VH: EVQLLESGGGLVQPGGSLRLSCAASGFTFSMYNMAWVRQAPGKGLEWVSWIYSSGGLTLYADSVKGRFTISRDNSKNTLYLQMNSLRAEDTAVYYCAKGSNTYYFDASGLGAFNMWGQGTMVTVSS
VL: DIQMTQSPDTVSFSPGERASLSCRASQSVRSDLAWYQQKPGQAPRLLIYGASNRATGIPVRFSGSGSGTDFTLTISRLEPEDFAVYYCQQYGSSPLFTFGPGTKVDIK
B4: M0039-G07 Fab (Fab, V domains shown)
VH: EVQLLESGGGLVQPGGSLRLSCAASGFTFSRYVMDWVRQAPGKGLEWVSRISPSGGHTDYADSVKGRFTISRDNSKNTLYLQMNSLRAEDTAVYYCARETVRGVYFDYWGQGTLVTVSS
VL: DIQMTQSPGTLSLSPGERATLSCRASQSVNSRFLAWYQQKPGQAPRLLIYSTSTRATGIPDRFSGSGSGTDFTLTISRLEPEDFAVYYCQRYGSSPTWTFGQGTKVEIK
B5: M0040-A03 Fab (Fab, V domains shown)
VH: EVQLLESGGGLVQPGGSLRLSCAASGFTFSNYMMIWVRQAPGKGLEWVSWISPSGGYTFYADSVKGRFTISRDNSKNTLYLQMNSLRAEDTAVYYCARGYYDILTGMVGGGAFDIWGQGTTVTVSS
VL: DIQMTQSPSFVSASVGDRVTISCRASHNINTWLAWYQQKPGKAPNLLIYSASNLQGGVPSRFSGSGSGTDFTLTISSLQPGDFATYYCQQASSFPITFGQGTRLEIK
B6: M0040-B06 Fab (Fab, V domains shown)
VH: EVQLLESGGGLVQPGGSLRLSCAASGFTFSVYPMVWVRQAPGKGLEWVSYISPSGGFTFYADSVKGRFTISRDNSKNTLYLQMNSLRAEDTAVYYCARVPGGSRQDFDIWGQGTMVTVSS
VL: QYELTQPPSASGTPGQRVTISCSGSSSNIGRNYVYWYQQVPGTAPKLLIYSNNQRPSGVPDRFSGSKSGTSASLVISGLRSEDEADYYCAAWDASLRGVFGGGTKLTVL
B7: M0040-C10 Fab (Fab, V domains shown)
VH: EVQLLESGGGLVQPGGSLRLSCAASGFTFSRYMMVWVRQAPGKGLEWVSSIVSSGGKTWYADSVKGRFTISRDNSKNTLYLQMNSLRAEDTAMYYCARWDWGPFDYWGQGTLVTVSS
VL: DIQMTQSPATLSASVGDRVTITCRASQTISTYLNWYQHKPGKAPELLIYAASSLQSGVPSRFSGSGSGTDFTLRISSLQPEDFATYYCQQSYTTPWTFGQGTKVEIK
B8: M0040-D08 Fab (Fab, V domains shown)
VH: EVQLLESGGGLVQPGGSLRLSCAASGFTFSHYGMTWVRQAPGKGLEWVSSIVPSGGYTAYADSVKGRFTISRDNSKNTLYLQMNSLRAEDTAVYYCTTGLSSSGTRWFDAWGQGTLVTVSS
VL: QSALTQSPSASASLGSSVKLTCTLASEHSGYIIAWHQQQPGKAPRFLMKLDGTGNFNKGSGVPDRFSGYSSGADRYLTISNLQSEDEADYYCETWDSTTLWVFGGGTKLTVL

Target: human MMP-14 (human)
Test: phage display selection and phage ELISA screening on biotinylated MMP-14

binding, binds:
B1, B2, B3, B4, B5, B6, B7, B8
